Drawing on PMC4855074, this text covers binding for one substance.

Protein sequences, listed by entry. Tags and fused reporters are not part of them.
UniProt Q7Z434: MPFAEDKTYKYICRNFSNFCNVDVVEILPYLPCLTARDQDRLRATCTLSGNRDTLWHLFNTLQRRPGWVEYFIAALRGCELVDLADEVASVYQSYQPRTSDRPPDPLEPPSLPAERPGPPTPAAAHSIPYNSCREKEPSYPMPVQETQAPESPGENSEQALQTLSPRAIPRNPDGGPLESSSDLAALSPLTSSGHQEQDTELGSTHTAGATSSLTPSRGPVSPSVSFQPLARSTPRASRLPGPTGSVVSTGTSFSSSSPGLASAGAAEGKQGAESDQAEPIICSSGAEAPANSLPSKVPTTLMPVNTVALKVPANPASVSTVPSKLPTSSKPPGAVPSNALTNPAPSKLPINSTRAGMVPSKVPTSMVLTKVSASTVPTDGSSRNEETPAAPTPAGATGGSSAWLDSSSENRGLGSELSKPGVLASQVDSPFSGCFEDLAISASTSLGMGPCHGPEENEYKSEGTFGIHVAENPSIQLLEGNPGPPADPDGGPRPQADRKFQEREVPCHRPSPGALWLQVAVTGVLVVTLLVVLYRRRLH
UniProt K9N7A1: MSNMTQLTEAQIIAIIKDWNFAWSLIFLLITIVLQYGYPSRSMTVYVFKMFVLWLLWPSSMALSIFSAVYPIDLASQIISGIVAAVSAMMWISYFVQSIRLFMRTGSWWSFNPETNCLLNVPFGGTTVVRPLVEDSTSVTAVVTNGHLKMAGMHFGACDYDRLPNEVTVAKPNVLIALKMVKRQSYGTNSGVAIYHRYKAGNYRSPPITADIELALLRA

Results are given in words; binding and its absence hold for the method and conditions named. In cells and extracts the contact can be indirect. For some assays here: Sequences can lack the tags named with a protein.

In experiment [1] the target is FLAG-tagged MAVS (wild type) (UniProt Q7Z434). The experiment in a line: co-IP.
In experiment [2] the target is T1, FLAG-tagged RIG-I (wild type) (UniProt O95786).
T1 sequence: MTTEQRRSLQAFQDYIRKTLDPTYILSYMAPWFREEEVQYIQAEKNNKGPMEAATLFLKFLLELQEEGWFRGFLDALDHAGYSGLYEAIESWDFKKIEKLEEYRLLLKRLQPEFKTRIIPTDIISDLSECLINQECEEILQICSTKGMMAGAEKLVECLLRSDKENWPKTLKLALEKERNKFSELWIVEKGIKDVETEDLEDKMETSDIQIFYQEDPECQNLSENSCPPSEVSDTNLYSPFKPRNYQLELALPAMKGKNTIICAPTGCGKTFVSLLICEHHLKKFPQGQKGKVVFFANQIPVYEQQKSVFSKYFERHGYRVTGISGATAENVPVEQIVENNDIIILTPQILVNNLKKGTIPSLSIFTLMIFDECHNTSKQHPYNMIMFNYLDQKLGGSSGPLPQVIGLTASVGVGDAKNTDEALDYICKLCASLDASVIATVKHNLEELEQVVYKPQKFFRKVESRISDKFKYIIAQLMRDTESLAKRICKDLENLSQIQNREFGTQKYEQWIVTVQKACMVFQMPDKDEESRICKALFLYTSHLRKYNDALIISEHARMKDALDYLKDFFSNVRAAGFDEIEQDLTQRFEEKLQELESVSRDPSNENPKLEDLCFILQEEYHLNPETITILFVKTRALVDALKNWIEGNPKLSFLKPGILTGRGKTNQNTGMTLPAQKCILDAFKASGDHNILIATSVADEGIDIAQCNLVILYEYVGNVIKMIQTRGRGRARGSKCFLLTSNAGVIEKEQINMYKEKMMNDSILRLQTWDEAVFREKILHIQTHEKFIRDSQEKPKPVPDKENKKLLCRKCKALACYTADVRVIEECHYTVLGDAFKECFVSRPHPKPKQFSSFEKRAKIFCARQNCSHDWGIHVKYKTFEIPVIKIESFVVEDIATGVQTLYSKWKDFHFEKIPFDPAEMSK
The experiment in a line: co-IP.

Take “MERS-CoV M protein, V5-tagged (from UniProt K9N7A1 1-219)”: the binding entry in experiment [1] and in experiment [2] was “no binding” in each case.
